Results deposited as PubChem BioAssay AID743454 (Peter MacCallum Cancer Centre, 2014).
In all, the deposit lists about 18,000 reagents; this is a random part of them. Over the whole deposit, 450 (2.5%) got an active call. 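Single biological run; no consistent viability z cut-off exists, so the class columns, not z-scores, define the calls.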 Unmarked entries are inactive. No sequences are given here.

- Assay: 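Knock-downs lowering viability or raising caspase 3/7 activity in vorinostat-treated resistant cells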 (primary screen)
- Cell system: human HCT116-VR colon cancer cells, selected for vorinostat resistance
- Knock-down reagent: siRNA pool against human genes, 40 nM siRNA pool
- Timing: vorinostat for 24 h, read-out about 72 h after transfection
- Conditions: vorinostat at 2.5 µM final
- Measured: 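Cell viability by CellTiter-Fluor and caspase 3/7 activity by luminescence, each scaled to mock wells per plate, duplicates averaged, then robust z-scored over all plates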
- Scale: viability robust z-score: higher = more viable cells than screen typical; caspase robust z-score: higher = more caspase 3/7 activity than screen typical
- Hit rule: 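a knock-down is a hit when classed RV1 or RV2 for lowered viability, or CA1 or CA2 for caspase activation; those lethal without drug were dropped; hits were retested singly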

SYNGAP1 (GeneID 8831) → viability hit class = no change; caspase hit class = no change; viability robust z-score = 0.46; caspase robust z-score = -0.66
STK4 (GeneID 6789) → viability hit class = no change; caspase hit class = no change; viability robust z-score = 1.09; caspase robust z-score = -0.64
PLAA (GeneID 9373) → viability hit class = no change; caspase hit class = no change; viability robust z-score = -2.44; caspase robust z-score = -0.97
SPMAP2 (GeneID 51298) → viability hit class = no change (active); caspase hit class = CA1 (caspase activation); viability robust z-score = -0.24; caspase robust z-score = 5.35
TAFAZZIN (GeneID 6901) → viability hit class = no change; caspase hit class = no change; viability robust z-score = 0.65; caspase robust z-score = -0.23
DERL1 (GeneID 79139) → viability hit class = no change; caspase hit class = no change; viability robust z-score = 0.07; caspase robust z-score = 1.81
HCCS (GeneID 3052) → viability hit class = no change; caspase hit class = no change; viability robust z-score = 1.8; caspase robust z-score = -1.19
ZBP1 (GeneID 81030) → viability hit class = no change; caspase hit class = no change; viability robust z-score = -1.25; caspase robust z-score = 0.18
LIN7A (GeneID 8825) → viability hit class = no change; caspase hit class = no change; viability robust z-score = 1.46; caspase robust z-score = -0.88
PRDM15 (GeneID 63977) → viability hit class = no change; caspase hit class = no change; viability robust z-score = 2.66; caspase robust z-score = 0.83
FRMD6 (GeneID 122786) → viability hit class = no change; caspase hit class = no change; viability robust z-score = -0.08; caspase robust z-score = -0.96
ZNF321P (GeneID 399669) → viability hit class = no change; caspase hit class = no change; viability robust z-score = -0.89; caspase robust z-score = 0.16
PIK3R4 (GeneID 30849) → viability hit class = no change; caspase hit class = no change; viability robust z-score = -0.3; caspase robust z-score = 0.7
SYT13 (GeneID 57586) → viability hit class = no change; caspase hit class = no change; viability robust z-score = 0.18; caspase robust z-score = 1.52
CLN3 (GeneID 1201) → viability hit class = no change; caspase hit class = no change; viability robust z-score = 1.14; caspase robust z-score = 0.2
MEPE (GeneID 56955) → viability hit class = no change; caspase hit class = no change; viability robust z-score = -0.6; caspase robust z-score = -0.72
PLCB2 (GeneID 5330) → viability hit class = no change; caspase hit class = no change; viability robust z-score = 0.92; caspase robust z-score = 1.96
RABIF (GeneID 5877) → viability hit class = no change; caspase hit class = no change; viability robust z-score = 1.04; caspase robust z-score = -0.45
NID1 (GeneID 4811) → viability hit class = no change; caspase hit class = no change; viability robust z-score = 0.73; caspase robust z-score = -0.83
AGMAT (GeneID 79814) → viability hit class = no change; caspase hit class = no change; viability robust z-score = 1.02; caspase robust z-score = -0.24
AMPH (GeneID 273) → viability hit class = no change; caspase hit class = no change; viability robust z-score = 0.29; caspase robust z-score = -0.62

Called active (from the list above):
SPMAP2 (GeneID 51298) → viability hit class = no change (active); caspase hit class = CA1 (caspase activation); viability robust z-score = -0.24; caspase robust z-score = 5.35
